Here are results for 20 molecules from the M2OR odorant receptor database.

Sequences of proteins named here, by UniProt entry; tags and fusion partners are left off. A line that says so, or that is headed by a name, gives the form on record, which may keep a tag or linker.
UniProt Q8VF06, as listed by the source: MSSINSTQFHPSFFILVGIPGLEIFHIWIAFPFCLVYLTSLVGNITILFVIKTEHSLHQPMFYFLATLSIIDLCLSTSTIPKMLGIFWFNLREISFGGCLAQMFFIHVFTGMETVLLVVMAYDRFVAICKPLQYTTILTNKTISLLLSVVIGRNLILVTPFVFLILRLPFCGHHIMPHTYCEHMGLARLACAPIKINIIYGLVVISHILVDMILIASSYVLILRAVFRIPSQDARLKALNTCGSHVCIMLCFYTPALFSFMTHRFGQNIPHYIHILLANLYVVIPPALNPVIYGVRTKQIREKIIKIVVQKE
UniProt Q7TS37, as listed by the source: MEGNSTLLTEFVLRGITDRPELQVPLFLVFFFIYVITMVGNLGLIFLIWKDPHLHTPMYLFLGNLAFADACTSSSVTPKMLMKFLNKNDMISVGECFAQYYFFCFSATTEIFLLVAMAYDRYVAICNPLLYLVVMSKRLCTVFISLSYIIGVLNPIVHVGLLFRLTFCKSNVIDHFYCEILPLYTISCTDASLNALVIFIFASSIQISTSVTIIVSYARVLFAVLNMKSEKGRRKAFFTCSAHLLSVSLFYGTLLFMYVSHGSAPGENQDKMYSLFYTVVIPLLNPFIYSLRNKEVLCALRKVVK
UniProt Q7TS40, as listed by the source: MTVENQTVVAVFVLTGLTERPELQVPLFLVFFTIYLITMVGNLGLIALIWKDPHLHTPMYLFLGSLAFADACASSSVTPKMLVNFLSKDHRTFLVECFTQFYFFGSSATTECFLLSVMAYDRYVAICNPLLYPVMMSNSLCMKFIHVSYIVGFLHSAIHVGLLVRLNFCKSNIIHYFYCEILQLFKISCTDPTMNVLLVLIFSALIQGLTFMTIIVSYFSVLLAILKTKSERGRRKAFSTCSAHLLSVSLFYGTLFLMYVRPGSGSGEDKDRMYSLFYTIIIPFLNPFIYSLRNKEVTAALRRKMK
UniProt Q8VF73, as listed by the source: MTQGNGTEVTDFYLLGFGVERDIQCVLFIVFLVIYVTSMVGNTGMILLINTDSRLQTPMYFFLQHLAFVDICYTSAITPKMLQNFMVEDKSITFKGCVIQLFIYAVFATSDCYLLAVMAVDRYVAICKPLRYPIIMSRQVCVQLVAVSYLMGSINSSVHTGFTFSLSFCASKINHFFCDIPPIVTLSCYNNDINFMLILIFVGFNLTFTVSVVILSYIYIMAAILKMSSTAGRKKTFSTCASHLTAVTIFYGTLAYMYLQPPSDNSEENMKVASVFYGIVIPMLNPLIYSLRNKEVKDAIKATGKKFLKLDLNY

The list shows a part of the results, in another mix than the full data. The calls were merged from several studies; some rest on single wells.

Conditions in all cases: stereoisomer not certain
One assay addresses T1, UniProt Q8VF43.
T1 sequence (whole entry): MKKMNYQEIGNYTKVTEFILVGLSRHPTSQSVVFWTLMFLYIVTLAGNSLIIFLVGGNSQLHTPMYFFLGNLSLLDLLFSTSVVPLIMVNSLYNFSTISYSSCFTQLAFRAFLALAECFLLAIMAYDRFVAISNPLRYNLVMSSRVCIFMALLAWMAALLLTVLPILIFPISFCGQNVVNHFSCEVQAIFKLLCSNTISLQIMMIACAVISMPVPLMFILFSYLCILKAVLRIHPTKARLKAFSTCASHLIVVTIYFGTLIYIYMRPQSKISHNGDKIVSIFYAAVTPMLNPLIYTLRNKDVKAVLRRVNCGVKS
The procedure, abridged:
(§1)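 Assay methods differ from source to source, frequently being transient luciferase assays in mammalian cell lines. For each receptor–molecule pair, the label responsive (active) applies when the original authors judged the measured signal statistically different from baseline, and non-responsive (inactive) applies otherwise.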

The next assay deals with T2, UniProt Q8VF52.
T2 sequence (whole entry): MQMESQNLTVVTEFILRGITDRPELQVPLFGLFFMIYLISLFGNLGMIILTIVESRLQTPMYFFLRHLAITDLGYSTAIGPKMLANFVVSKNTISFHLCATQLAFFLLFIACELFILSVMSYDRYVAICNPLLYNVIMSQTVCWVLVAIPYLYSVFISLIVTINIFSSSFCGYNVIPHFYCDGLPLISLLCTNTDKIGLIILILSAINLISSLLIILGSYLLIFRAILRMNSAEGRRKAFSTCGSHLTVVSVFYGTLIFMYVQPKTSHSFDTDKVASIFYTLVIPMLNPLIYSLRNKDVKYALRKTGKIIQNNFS
The procedure, abridged: as §1

The target of another assay is T3, UniProt Q8VEU7.
T3 sequence (whole entry): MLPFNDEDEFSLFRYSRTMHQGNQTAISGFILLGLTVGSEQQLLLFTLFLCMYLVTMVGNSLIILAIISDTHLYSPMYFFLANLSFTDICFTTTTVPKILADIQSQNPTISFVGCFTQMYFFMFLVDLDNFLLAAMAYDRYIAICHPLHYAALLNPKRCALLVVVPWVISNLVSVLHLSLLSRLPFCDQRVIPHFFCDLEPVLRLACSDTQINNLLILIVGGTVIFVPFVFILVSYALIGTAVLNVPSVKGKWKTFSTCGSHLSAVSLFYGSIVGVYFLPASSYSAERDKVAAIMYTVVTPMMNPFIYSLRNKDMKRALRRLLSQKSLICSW
The procedure, abridged:
as §1

In the next assay the target is T4, UniProt Q8VF05.
T4 sequence (whole entry): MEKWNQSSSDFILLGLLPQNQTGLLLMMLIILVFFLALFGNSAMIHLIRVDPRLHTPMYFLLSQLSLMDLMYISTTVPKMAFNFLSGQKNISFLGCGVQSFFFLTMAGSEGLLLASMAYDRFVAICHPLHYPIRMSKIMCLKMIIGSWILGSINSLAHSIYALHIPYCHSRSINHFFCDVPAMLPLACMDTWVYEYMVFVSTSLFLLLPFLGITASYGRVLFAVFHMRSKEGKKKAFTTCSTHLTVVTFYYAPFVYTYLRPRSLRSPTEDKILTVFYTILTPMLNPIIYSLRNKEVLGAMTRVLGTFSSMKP
Put shortly: as §1

A further assay deals with T5, UniProt Q8VF24.
T5 sequence (whole entry): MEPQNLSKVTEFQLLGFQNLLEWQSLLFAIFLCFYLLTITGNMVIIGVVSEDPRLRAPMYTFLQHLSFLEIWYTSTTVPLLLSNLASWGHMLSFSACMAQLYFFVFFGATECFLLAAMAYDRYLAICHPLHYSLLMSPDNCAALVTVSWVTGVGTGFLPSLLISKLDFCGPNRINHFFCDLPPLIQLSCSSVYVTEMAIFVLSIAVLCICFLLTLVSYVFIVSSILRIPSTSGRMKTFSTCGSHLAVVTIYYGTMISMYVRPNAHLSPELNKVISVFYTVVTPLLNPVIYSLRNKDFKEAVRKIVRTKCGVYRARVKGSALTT
Put shortly:
as §1

The target in the next assay is T6, UniProt Q8VF44.
T6 sequence (whole entry): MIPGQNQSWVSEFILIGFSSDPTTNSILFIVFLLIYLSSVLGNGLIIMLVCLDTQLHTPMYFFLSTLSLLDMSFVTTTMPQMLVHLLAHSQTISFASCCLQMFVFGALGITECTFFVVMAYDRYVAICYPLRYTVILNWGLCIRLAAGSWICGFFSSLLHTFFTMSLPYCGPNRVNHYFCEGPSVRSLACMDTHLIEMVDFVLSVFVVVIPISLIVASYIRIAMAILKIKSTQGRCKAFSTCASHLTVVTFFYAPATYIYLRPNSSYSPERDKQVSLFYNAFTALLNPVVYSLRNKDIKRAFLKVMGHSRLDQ
The procedure, abridged:
as §1

The target in a further assay is UniProt Q8VF06. The procedure, abridged:
as §1

The target of the next assay is UniProt Q7TS37. The procedure, abridged: as §1
The next assay addresses UniProt Q7TS40. Put shortly: as §1
The next assay deals with UniProt Q8VF73. Put shortly:
as §1

For the molecule `COC(=O)c1ccccc1O`, the “odorant receptor agonist call” value with UniProt Q8VF43 and in the assay with UniProt Q8VF52 was “inactive” in each case.
As to `CC12CCC(CC1)C(C)(C)O2`, the “odorant receptor agonist call” value with UniProt Q8VF43 and with UniProt Q8VF52 was “inactive” in each case.
On to `CC(C)C=O`, for which the “odorant receptor agonist call” value with UniProt Q8VF43 and with UniProt Q8VF52 was “inactive” throughout.
On to `CCCCCCCCCC=O`, for which the “odorant receptor agonist call” value with UniProt Q8VEU7, with UniProt Q8VF05, in the assay with UniProt Q8VF24, with UniProt Q8VF43, with UniProt Q8VF44 and with UniProt Q8VF52 was “inactive” each time.
As to `CC(C)(O)CCCC1=CCC(C=O)CC1` (centres undefined), the “odorant receptor agonist call” value in the assay with UniProt Q8VEU7, in the assay with UniProt Q8VF05, with UniProt Q8VF24, in the assay with UniProt Q8VF43, with UniProt Q8VF44 and with UniProt Q8VF52 was “inactive” throughout.
As for `c1cnccn1`, the “odorant receptor agonist call” value in the assay with UniProt Q8VF43 and in the assay with UniProt Q8VF52 was “inactive” in each case.
For the molecule `COc1ccccc1O`, the “odorant receptor agonist call” value in the assay with UniProt Q8VF43 and in the assay with UniProt Q8VF52 was “inactive” in each case.
As to `O=C1CCCCC1`, the “odorant receptor agonist call” value in the assay with UniProt Q8VEU7, with UniProt Q8VF24, in the assay with UniProt Q8VF44 and with UniProt Q8VF52 was “inactive” in each case. Moreover, the “odorant receptor agonist call” value with UniProt Q8VF05 was “active”.
`C=CCc1ccc(OC)c(OC)c1`: the “odorant receptor agonist call” value with UniProt Q8VF43 is “inactive”. For the same molecule, in the assay with UniProt Q8VF52, the “odorant receptor agonist call” value is “active”.
For the molecule `CCCCCCCCC=O`, the “odorant receptor agonist call” value with UniProt Q8VEU7, with UniProt Q8VF05, in the assay with UniProt Q8VF24, in the assay with UniProt Q8VF43, with UniProt Q8VF44 and with UniProt Q8VF52 was “inactive” each time.
Consider `CC(=O)OC1CC2CCC1(C)C2(C)C` (centres undefined), for which the “odorant receptor agonist call” value in the assay with UniProt Q8VF43 and in the assay with UniProt Q8VF52 was “inactive” in each case.
`CC1COCc2cc3c(cc21)C(C)(C)C(C)C3(C)C` (centres undefined): the “odorant receptor agonist call” value with UniProt Q8VF43 and with UniProt Q8VF52 was “inactive” each time.
Regarding `CCCCCC(=O)O`, the “odorant receptor agonist call” value with UniProt Q8VEU7, with UniProt Q8VF05, with UniProt Q8VF06, with UniProt Q8VF24, in the assay with UniProt Q8VF43 and with UniProt Q8VF44 was “inactive” throughout. The “odorant receptor agonist call” value with UniProt Q8VF52 was “inactive”.
Regarding `C=C(C)C1CC=C(C)C(=O)C1` (centres undefined), the “odorant receptor agonist call” value with UniProt Q7TS37, with UniProt Q7TS40, in the assay with UniProt Q8VF05 and in the assay with UniProt Q8VF52 was “active” each time. Also, the “odorant receptor agonist call” value in the assay with UniProt Q8VEU7, in the assay with UniProt Q8VF06, with UniProt Q8VF24, in the assay with UniProt Q8VF43, in the assay with UniProt Q8VF44 and with UniProt Q8VF73 was “inactive” each time.
On to `CC(=O)C(C)=O`, for which the “odorant receptor agonist call” value with UniProt Q8VF43 and with UniProt Q8VF52 was “inactive” throughout.
In the case of `O=C1CCCCCCCCCCCCCCO1`, the “odorant receptor agonist call” value in the assay with UniProt Q8VF43 and with UniProt Q8VF52 was “inactive” in each case.
As to `COc1cc(C=O)ccc1O`, the “odorant receptor agonist call” value with UniProt Q8VF43 and in the assay with UniProt Q8VF52 was “inactive” throughout.
With `CC12CCC(C1)C(C)(C)C2=O` (centres undefined), the “odorant receptor agonist call” value in the assay with UniProt Q8VEU7 and with UniProt Q8VF44 was “inactive” in each case. Besides, the “odorant receptor agonist call” value with UniProt Q8VF05, with UniProt Q8VF24 and with UniProt Q8VF52 was “active” throughout.
As to `CC(C)=CCCC(C)=CC=O`, the “odorant receptor agonist call” value with UniProt Q8VF43 and with UniProt Q8VF52 was “inactive” each time.
As for `CC(=O)c1ccccc1`, the “odorant receptor agonist call” value in the assay with UniProt Q7TS37, with UniProt Q8VF05 and in the assay with UniProt Q8VF52 was “active” throughout. The “odorant receptor agonist call” value with UniProt Q7TS40, with UniProt Q8VEU7, with UniProt Q8VF06, with UniProt Q8VF24, with UniProt Q8VF43 and with UniProt Q8VF44 was “inactive” throughout. The “odorant receptor agonist call” value in the assay with UniProt Q8VF73 was “inactive”.
